# For part of these data: Negatives hold for the conditions tested. Protein sequences can lack the tags named with them. For at least one entry, the source does not settle the construct or the ends of the probe. For part of these data: The comparison behind a weaker result is the experiment's own reference, which may not be listed here.
# What was measured:
# [1] = biological target: T1, GUN1-PS (Arabidopsis thaliana) (UniProt Q9SIC9); test: competition with a labelled probe; details: 5x buffer (4 ul per reaction): 50 mM Tris-HCl pH 7.5, 50 mM NaCl, 200 mM KCl, 5 mM MgCl2, 5 mM EDTA, 5 mM DTT, 0.25 mg/ml BSA, 5% glycerol, 30 min at 23 C, recombinant protein, residues 232-918, protein details: N-terminal TRX-His
# T1 sequence (looked up): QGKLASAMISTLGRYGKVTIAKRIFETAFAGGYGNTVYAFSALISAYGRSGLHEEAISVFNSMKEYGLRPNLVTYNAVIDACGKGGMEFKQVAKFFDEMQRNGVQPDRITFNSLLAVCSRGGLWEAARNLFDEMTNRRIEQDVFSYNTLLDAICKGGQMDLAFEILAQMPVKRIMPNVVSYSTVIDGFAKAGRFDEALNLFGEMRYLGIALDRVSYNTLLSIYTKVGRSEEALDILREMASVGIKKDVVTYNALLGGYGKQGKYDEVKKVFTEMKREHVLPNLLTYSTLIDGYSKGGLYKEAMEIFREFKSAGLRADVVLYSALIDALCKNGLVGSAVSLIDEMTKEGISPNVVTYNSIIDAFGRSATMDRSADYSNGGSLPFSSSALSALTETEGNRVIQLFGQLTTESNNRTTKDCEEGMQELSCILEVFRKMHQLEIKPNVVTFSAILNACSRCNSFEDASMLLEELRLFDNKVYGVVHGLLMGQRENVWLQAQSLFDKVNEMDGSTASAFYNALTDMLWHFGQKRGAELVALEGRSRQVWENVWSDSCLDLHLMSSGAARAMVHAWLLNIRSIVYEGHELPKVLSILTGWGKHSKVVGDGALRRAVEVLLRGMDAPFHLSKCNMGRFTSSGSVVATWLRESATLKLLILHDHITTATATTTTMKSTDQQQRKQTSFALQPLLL
# [2] = biological target: T1, GUN1-PS (Arabidopsis thaliana); test: EMSA; details: slight shift, 100-600 nM, weaker shift at 800 nM; 5x buffer (4 ul per reaction): 50 mM Tris-HCl pH 7.5, 50 mM NaCl, 200 mM KCl, 5 mM MgCl2, 5 mM EDTA, 5 mM DTT, 0.25 mg/ml BSA, 5% glycerol; 30 min at 23 C; recombinant protein; residues 232-918; protein details: N-terminal TRX-His
sequence,measurement,setting,value
AAGAGACAACCUGGCGAACUGAAAC [23S_104856 unlabeled],binding result,"[1]; vs Cy5-23S_104856, 5-50x, judged weak or nonspecific",binds
AAGAGACAACCUGGCGAACUGAAAC [23S_104856],binding result,[2],binds more weakly
AUUCUUAUGUGGCAGUCUCUAGUCCACUAGCUUUUG [nonspecific competitor for 23S and ndhG],binding result,"[1]; vs Cy5-ndhG, 5-50x",no binding

# Source: publication PMC11671767, “GENOMES UNCOUPLED PROTEIN1 binds to plastid RNAs and promotes their maturation”
